These are yes or no findings as the source states them, for the method shown. Binding seen in cells or lysates may run through a third protein. For part of these data: Binding can be weak; no strength is given. Sequences can lack the tags named with a protein.

For one experiment, the target named is POPDC1Δ236-Myc (mouse). Description: co-IP; COS-7 lysates, immunoprecipitation of Myc-tagged POPDC1 and truncations with anti-MYC, western blot with anti-AC9 and anti-MYC. For orientation: In western blotting, separated proteins are transferred to a membrane and probed.
In experiment [1] the target is POPDC1Δ236 fused to a half of Venus (BiFC construct) (mouse). In words: split reporter; BiFC (split Venus, VN and VC) in COS-7 cells, which lack detectable endogenous POPDC proteins; plate reader, normalised to DAPI.
Experiment [2] has as its target endogenous POPDC2 of neonatal rat cardiomyocytes (rat (endogenous in neonatal cardiomyocytes)). Description: proximity ligation; neonatal rat cardiomyocytes infected with adenovirus for Flag-tagged AC9 or Flag-tagged GFP; antibodies against Flag and endogenous POPDC1, POPDC2 or Gβγ.

B1: Flag-tagged AC9 (adenylyl cyclase 9) (enzyme, UniProt O60503 1-1353)
chain: MASPPHQQLLHHHSTEVSCDSSGDSNSVRVKINPKQLSSNSHPKHCKYSISSSCSSSGDSGGVPRRVGGGGRLRRQKKLPQLFERASSRWWDPKFDSVNLEEACLERCFPQTQRRFRYALFYIGFACLLWSIYFAVHMRSRLIVMVAPALCFLLVCVGFFLFTFTKLYARHYAWTSLALTLLVFALTLAAQFQVLTPVSGRGDSSNLTATARPTDTCLSQVGSFSMCIEVLFLLYTVMHLPLYLSLCLGVAYSVLFETFGYHFRDEACFPSPGAGALHWELLSRGLLHGCIHAIGVHLFVMSQVRSRSTFLKVGQSIMHGKDLEVEKALKERMIHSVMPRIIADDLMKQGDEESENSVKRHATSSPKNRKKKSSIQKAPIAFRPFKMQQIEEVSILFADIVGFTKMSANKSAHALVGLLNDLFGRFDRLCEETKCEKISTLGDCYYCVAGCPEPRADHAYCCIEMGLGMIKAIEQFCQEKKEMVNMRVGVHTGTVLCGILGMRRFKFDVWSNDVNLANLMEQLGVAGKVHISEATAKYLDDRYEMEDGKVIERLGQSVVADQLKGLKTYLISGQRAKESRCSCAEALLSGFEVIDGSQVSSGPRGQGTASSGNVSDLAQTVKTFDNLKTCPSCGITFAPKSEAGAEGGAPQNGCQDEHKNSTKASGGPNPKTQNGLLSPPQEEKLTNSQTSLCEILQEKGRWAGVSLDQSALLPLRFKNIREKTDAHFVDVIKEDSLMKDYFFKPPINQFSLNFLDQELERSYRTSYQEEVIKNSPVKTFASPTFSSLLDVFLSTTVFLTLSTTCFLKYEAATVPPPPAALAVFSAALLLEVLSLAVSIRMVFFLEDVMACTKRLLEWIAGWLPRHCIGAILVSLPALAVYSHVTSEYETNIHFPVFTGSAALIAVVHYCNFCQLSSWMRSSLATVVGAGPLLLLYVSLCPDSSVLTSPLDAVQNFSSERNPCNSSVPRDLRRPASLIGQEVVLVFFLLLLLVWFLNREFEVSYRLHYHGDVEADLHRTKIQSMRDQADWLLRNIIPYHVAEQLKVSQTYSKNHDSGGVIFASIVNFSEFYEENYEGGKECYRVLNELIGDFDELLSKPDYSSIEKIKTIGATYMAASGLNTAQAQDGSHPQEHLQILFEFAKEMMRVVDDFNNNMLWFNFKLRVGFNHGPLTAGVIGTTKLLYDIWGDTVNIASRMDTTGVECRIQVSEESYRVLSKMGYDFDYRGTVNVKGKGQMKTYLYPKCTDHRVIPQHQLSISPDIRVQVDGSIGRSPTDEIANLVPSVQYVDKTSLGSDSSTQAKDAHLSPKRPWKEPVKAEERGRFGKAIEKDDCDETGIEEANELTKLNVSKSV
Turning to B1, the binding result with POPDC1Δ236-Myc (mouse) was “binds”.

B2: AC9-VN and AC9-VC (AC9 fused to the N-terminal or C-terminal half of Venus) (enzyme, UniProt O60503 1-1353)
chain: MASPPHQQLLHHHSTEVSCDSSGDSNSVRVKINPKQLSSNSHPKHCKYSISSSCSSSGDSGGVPRRVGGGGRLRRQKKLPQLFERASSRWWDPKFDSVNLEEACLERCFPQTQRRFRYALFYIGFACLLWSIYFAVHMRSRLIVMVAPALCFLLVCVGFFLFTFTKLYARHYAWTSLALTLLVFALTLAAQFQVLTPVSGRGDSSNLTATARPTDTCLSQVGSFSMCIEVLFLLYTVMHLPLYLSLCLGVAYSVLFETFGYHFRDEACFPSPGAGALHWELLSRGLLHGCIHAIGVHLFVMSQVRSRSTFLKVGQSIMHGKDLEVEKALKERMIHSVMPRIIADDLMKQGDEESENSVKRHATSSPKNRKKKSSIQKAPIAFRPFKMQQIEEVSILFADIVGFTKMSANKSAHALVGLLNDLFGRFDRLCEETKCEKISTLGDCYYCVAGCPEPRADHAYCCIEMGLGMIKAIEQFCQEKKEMVNMRVGVHTGTVLCGILGMRRFKFDVWSNDVNLANLMEQLGVAGKVHISEATAKYLDDRYEMEDGKVIERLGQSVVADQLKGLKTYLISGQRAKESRCSCAEALLSGFEVIDGSQVSSGPRGQGTASSGNVSDLAQTVKTFDNLKTCPSCGITFAPKSEAGAEGGAPQNGCQDEHKNSTKASGGPNPKTQNGLLSPPQEEKLTNSQTSLCEILQEKGRWAGVSLDQSALLPLRFKNIREKTDAHFVDVIKEDSLMKDYFFKPPINQFSLNFLDQELERSYRTSYQEEVIKNSPVKTFASPTFSSLLDVFLSTTVFLTLSTTCFLKYEAATVPPPPAALAVFSAALLLEVLSLAVSIRMVFFLEDVMACTKRLLEWIAGWLPRHCIGAILVSLPALAVYSHVTSEYETNIHFPVFTGSAALIAVVHYCNFCQLSSWMRSSLATVVGAGPLLLLYVSLCPDSSVLTSPLDAVQNFSSERNPCNSSVPRDLRRPASLIGQEVVLVFFLLLLLVWFLNREFEVSYRLHYHGDVEADLHRTKIQSMRDQADWLLRNIIPYHVAEQLKVSQTYSKNHDSGGVIFASIVNFSEFYEENYEGGKECYRVLNELIGDFDELLSKPDYSSIEKIKTIGATYMAASGLNTAQAQDGSHPQEHLQILFEFAKEMMRVVDDFNNNMLWFNFKLRVGFNHGPLTAGVIGTTKLLYDIWGDTVNIASRMDTTGVECRIQVSEESYRVLSKMGYDFDYRGTVNVKGKGQMKTYLYPKCTDHRVIPQHQLSISPDIRVQVDGSIGRSPTDEIANLVPSVQYVDKTSLGSDSSTQAKDAHLSPKRPWKEPVKAEERGRFGKAIEKDDCDETGIEEANELTKLNVSKSV
For the molecule B2, in experiment [1], the binding result is “binds”.

B3: Flag-tagged AC9, adenovirally expressed (enzyme, UniProt O60503 1-1353)
chain: MASPPHQQLLHHHSTEVSCDSSGDSNSVRVKINPKQLSSNSHPKHCKYSISSSCSSSGDSGGVPRRVGGGGRLRRQKKLPQLFERASSRWWDPKFDSVNLEEACLERCFPQTQRRFRYALFYIGFACLLWSIYFAVHMRSRLIVMVAPALCFLLVCVGFFLFTFTKLYARHYAWTSLALTLLVFALTLAAQFQVLTPVSGRGDSSNLTATARPTDTCLSQVGSFSMCIEVLFLLYTVMHLPLYLSLCLGVAYSVLFETFGYHFRDEACFPSPGAGALHWELLSRGLLHGCIHAIGVHLFVMSQVRSRSTFLKVGQSIMHGKDLEVEKALKERMIHSVMPRIIADDLMKQGDEESENSVKRHATSSPKNRKKKSSIQKAPIAFRPFKMQQIEEVSILFADIVGFTKMSANKSAHALVGLLNDLFGRFDRLCEETKCEKISTLGDCYYCVAGCPEPRADHAYCCIEMGLGMIKAIEQFCQEKKEMVNMRVGVHTGTVLCGILGMRRFKFDVWSNDVNLANLMEQLGVAGKVHISEATAKYLDDRYEMEDGKVIERLGQSVVADQLKGLKTYLISGQRAKESRCSCAEALLSGFEVIDGSQVSSGPRGQGTASSGNVSDLAQTVKTFDNLKTCPSCGITFAPKSEAGAEGGAPQNGCQDEHKNSTKASGGPNPKTQNGLLSPPQEEKLTNSQTSLCEILQEKGRWAGVSLDQSALLPLRFKNIREKTDAHFVDVIKEDSLMKDYFFKPPINQFSLNFLDQELERSYRTSYQEEVIKNSPVKTFASPTFSSLLDVFLSTTVFLTLSTTCFLKYEAATVPPPPAALAVFSAALLLEVLSLAVSIRMVFFLEDVMACTKRLLEWIAGWLPRHCIGAILVSLPALAVYSHVTSEYETNIHFPVFTGSAALIAVVHYCNFCQLSSWMRSSLATVVGAGPLLLLYVSLCPDSSVLTSPLDAVQNFSSERNPCNSSVPRDLRRPASLIGQEVVLVFFLLLLLVWFLNREFEVSYRLHYHGDVEADLHRTKIQSMRDQADWLLRNIIPYHVAEQLKVSQTYSKNHDSGGVIFASIVNFSEFYEENYEGGKECYRVLNELIGDFDELLSKPDYSSIEKIKTIGATYMAASGLNTAQAQDGSHPQEHLQILFEFAKEMMRVVDDFNNNMLWFNFKLRVGFNHGPLTAGVIGTTKLLYDIWGDTVNIASRMDTTGVECRIQVSEESYRVLSKMGYDFDYRGTVNVKGKGQMKTYLYPKCTDHRVIPQHQLSISPDIRVQVDGSIGRSPTDEIANLVPSVQYVDKTSLGSDSSTQAKDAHLSPKRPWKEPVKAEERGRFGKAIEKDDCDETGIEEANELTKLNVSKSV
B3: the binding entry in experiment [2] is reported as “no binding”.

These data come from PMC9724675.
